This note sets out measurements from PMC8508763.

The chains behind the UniProt entries cited, without tags or fusion partners. Where a name states a change or a piece, a line headed by the entry shows the natural chain unless it says otherwise.
UniProt P31946: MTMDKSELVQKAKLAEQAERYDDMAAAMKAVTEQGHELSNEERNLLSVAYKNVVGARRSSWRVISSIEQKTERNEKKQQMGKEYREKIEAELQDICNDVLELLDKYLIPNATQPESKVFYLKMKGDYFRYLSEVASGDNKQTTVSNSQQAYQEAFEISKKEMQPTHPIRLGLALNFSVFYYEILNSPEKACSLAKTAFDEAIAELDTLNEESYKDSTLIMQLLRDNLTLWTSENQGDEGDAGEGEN

No constants are given. Whether binding was seen depends on the method and setting. In cells and extracts the contact can be indirect. Binding calls can cover weak binding; strength is not graded here.

In assay [1] the target is GST-SELENOW(U13C) (mouse) (UniProt P63300). The assay can be described thus: pull-down; competition: purified GST-SELENOW(U13C) (5 μg) and lysate overexpressing HA-14-3-3β (5 μg) with 0, 1, 2 or 5 μg Trx1-His for 2 h; glutathione or Ni-NTA beads 1 h; non-reducing SDS-PAGE, immunoblot anti-HA; only the target purified. In general terms: In western blotting, separated proteins are transferred to a membrane and probed.

For another assay, the target named is His-SELENOW(U13C) (UniProt P63300). Briefly: co-IP; HEK293 cells co-transfected with His-SELENOW(U13C) and HA-14-3-3β (WT, C96S, C191S or C96,191S); extracts immunoprecipitated with anti-His, immunoblotted with anti-HA and anti-His.

As to HA-14-3-3β (from UniProt P31946 1-246), the binding entry (in assay [1]; in the assay with His-SELENOW(U13C)) was “binds” throughout. On to “HA-14-3-3β(C96S) (from UniProt P31946 1-246)”, for which the binding entry with His-SELENOW(U13C) is “binds”.
